Test: Apparent elimination half-life (HLapp) and phlebotomy efficiency coefficient in treated family members
Assay type: in vivo, human
Conditions: phlebotomy efficiency coefficient
Description: To evaluate the effect of phlebotomy, versus the expected rate of intrinsic elimination, we graphically and statistically compared the observed decreasing trends in each family member (fitted to a simple exponential decay model) with reference population elimination kinetics. Specifically, for the reference population of occupationally exposed retirees, we considered: i) the 95% confidence interval of the geometric mean elimination rate for each PFAA, and ii) the fastest individual rate of elimination rate among the reference population. For comparative purposes, the concentration of each PFAA in serum on the first day of the intervention was taken as time zero, and the models were forced through this starting point.
One metric that was calculated to compare the efficiency of the phlebotomy for removal of different PFAAs in each family member was termed the phlebotomy efficiency coefficient (EC). This was based on the subtractive difference between HLapp (yrs) in each treated family member and the geometric mean HLin (yrs) of the reference population according to Equation 1 . [drawing 1] (1)

SMILES	phlebotomy efficiency for enhancing PFAA elimination (order)
O=S(=O)(O)C(F)(F)C(F)(F)C(F)(F)C(F)(F)C(F)(F)C(F)(F)F [PFHxS, Perfluorohexane sulfonate]	PFOS≈PFHxS>PFOA
O=C(O)C(F)(F)C(F)(F)C(F)(F)C(F)(F)C(F)(F)C(F)(F)C(F)(F)F [PFOA, perfluorooctanoic acid]	PFOS≈PFHxS>PFOA
O=S(=O)(O)C(F)(F)C(F)(F)C(F)(F)C(F)(F)C(F)(F)C(F)(F)C(F)(F)C(F)(F)F [PFOS, perfluoroctane sulfonate]	PFOS≈PFHxS>PFOA
